Test results: publication PMC6450876

Chains of the proteins cited; added tags and fusions are not shown.
UniProt O43474: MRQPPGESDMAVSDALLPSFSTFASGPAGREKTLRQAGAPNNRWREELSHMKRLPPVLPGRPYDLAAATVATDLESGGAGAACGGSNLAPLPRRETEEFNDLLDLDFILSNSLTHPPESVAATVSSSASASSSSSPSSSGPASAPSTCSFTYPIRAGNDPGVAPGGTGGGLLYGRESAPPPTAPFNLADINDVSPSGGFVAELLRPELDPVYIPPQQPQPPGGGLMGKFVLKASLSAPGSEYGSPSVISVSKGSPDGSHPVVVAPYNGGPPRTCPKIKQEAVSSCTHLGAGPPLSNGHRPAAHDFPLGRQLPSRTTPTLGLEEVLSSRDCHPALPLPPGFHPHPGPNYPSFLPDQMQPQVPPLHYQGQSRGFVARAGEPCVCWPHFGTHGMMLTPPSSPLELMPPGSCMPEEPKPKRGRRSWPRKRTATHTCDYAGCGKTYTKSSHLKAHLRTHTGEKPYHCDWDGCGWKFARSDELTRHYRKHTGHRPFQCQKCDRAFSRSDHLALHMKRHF

Target: T1, SET8 tagged with Flag epitope (Ad-SET8) (UniProt Q9NQR1)
T1 sequence: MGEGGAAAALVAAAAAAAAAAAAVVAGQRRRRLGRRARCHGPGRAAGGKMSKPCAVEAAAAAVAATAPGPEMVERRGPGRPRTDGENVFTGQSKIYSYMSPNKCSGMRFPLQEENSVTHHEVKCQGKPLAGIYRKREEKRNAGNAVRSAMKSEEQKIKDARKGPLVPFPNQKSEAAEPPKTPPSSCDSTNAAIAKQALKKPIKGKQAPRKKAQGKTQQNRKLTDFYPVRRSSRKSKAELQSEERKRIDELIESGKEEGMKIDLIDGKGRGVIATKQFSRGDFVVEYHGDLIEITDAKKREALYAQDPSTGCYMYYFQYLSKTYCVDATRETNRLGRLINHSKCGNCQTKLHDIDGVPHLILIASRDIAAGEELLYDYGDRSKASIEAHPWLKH
Assay: affinity purification with mass spectrometry; 97H cells infected with Ad-GFP or Ad-SET8 (Flag); nuclear extracts immunoprecipitated with anti-FLAG M2 agarose; flag peptide; SDS-PAGE, silver staining; differential bands analysed by mass spectrometry

## Krüppel-like factor 4 (KLF4), endogenous in HCC cells (from UniProt O43474 1-513)
  binding: binds

No constants are given. Whether binding was seen depends on the method and setting. Binding seen in cells or lysates may run through a third protein. These calls come from enrichment with a bait or labelling near it, and not all partners need be listed. Sequences can lack the tags named with a protein.
